# Reference: article PMC7862700
# The list shows a part of the results, in another mix than the full data. At the low end of the ranking the order means little.
# Target: T1, ELK1 (UniProt P19419)
# T1 sequence: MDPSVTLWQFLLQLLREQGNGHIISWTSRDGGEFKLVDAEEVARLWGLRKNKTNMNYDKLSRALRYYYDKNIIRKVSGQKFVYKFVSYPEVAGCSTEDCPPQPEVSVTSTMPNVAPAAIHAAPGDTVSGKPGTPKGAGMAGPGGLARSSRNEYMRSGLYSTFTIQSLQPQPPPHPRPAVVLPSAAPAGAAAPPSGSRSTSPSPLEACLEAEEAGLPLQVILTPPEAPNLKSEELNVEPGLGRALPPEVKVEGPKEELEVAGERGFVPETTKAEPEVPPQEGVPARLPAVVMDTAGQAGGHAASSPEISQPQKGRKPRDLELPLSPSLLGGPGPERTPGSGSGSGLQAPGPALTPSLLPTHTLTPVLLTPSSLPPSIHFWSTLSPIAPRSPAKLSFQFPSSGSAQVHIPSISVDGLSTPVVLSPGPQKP
# Test: DAPPL (digital affinity profiling via proximity ligation, sequencing)
# Conditions: 10 mM Tris-HCl pH 7.5, 50 mM NaCl, 1 mM DTT, 4% glycerol, room temperature, 30 min; GST-TFs on glutathione beads, 16-mer random dsDNA library, 0.1% …; high values mean tight binding; double strand, one strand shown; scale: fold enrichment (6-mer frequency, TF over GST control)
row,Sequence,binding signal
1,GACAGC,0.81
2,GGGTCA,0.708
3,TGGCGG,0.74
4,CCAGGT,0.784
5,AGGTCA,0.753
6,GGAACC,0.885
7,GACGCA,0.583
8,GGCCGA,0.738
9,ACCGTG,0.235
10,GAGTTT,0.648
11,AGACGG,0.364
12,AGACGA,0.642
13,GTGGTG,0.896
14,CGTGGC,0.868
15,CACAGA,0.848
16,AGGCGT,0.523
17,AAGACC,0.852
18,GCCATA,0.802
19,CATGTG,0.805
20,GTAGAC,0.756

row,Sequence,binding signal
1,GCGGGA,0.398
2,GGGCGC,0.605
3,GAAGAC,0.835
4,GATAGA,0.836
5,GTCATC,0.852
6,GACCAG,0.612
7,GGAGAA,0.305
8,AGTCTG,0.606
9,GTCATG,0.916
10,TGAGTT,0.412
11,TACCAG,0.886
12,GGACTA,0.9
13,CAGCCG,0.737
14,GAGGAT,0.549
15,AGCTGG,0.999
16,GGGAGA,0.34
17,GGTGTG,0.695
18,GGCTGT,0.747
19,CGGCCG,0.852

# Target: T2, ELK3 (UniProt P41970)
# T2 sequence: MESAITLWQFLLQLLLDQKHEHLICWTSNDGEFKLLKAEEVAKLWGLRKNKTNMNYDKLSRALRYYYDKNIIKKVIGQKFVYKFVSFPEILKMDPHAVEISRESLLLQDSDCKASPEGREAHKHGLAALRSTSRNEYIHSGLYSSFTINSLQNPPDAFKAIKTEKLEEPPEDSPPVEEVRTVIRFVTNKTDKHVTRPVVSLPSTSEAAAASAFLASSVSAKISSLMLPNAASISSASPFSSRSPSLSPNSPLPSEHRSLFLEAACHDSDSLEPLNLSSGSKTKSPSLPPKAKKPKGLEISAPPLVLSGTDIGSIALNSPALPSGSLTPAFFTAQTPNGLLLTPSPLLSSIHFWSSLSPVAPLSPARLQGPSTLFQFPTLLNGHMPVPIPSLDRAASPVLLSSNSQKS
# Test: as above
# Conditions: 10 mM Tris-HCl pH 7.5, 50 mM NaCl, 1 mM DTT, 4% glycerol, room temperature, 30 min; GST-TFs on glutathione beads, 16-mer random dsDNA library, 0.1% …; high values mean tight binding; double strand, one strand shown; scale: fold enrichment (6-mer frequency, TF over GST control)
row,Sequence,binding signal
1,GACAGC,0.704
2,GGGTCA,0.775
3,TGGCGG,0.776
4,CCAGGT,0.74
5,AGGTCA,0.76
6,GGAACC,0.814
7,GACGCA,0.473
8,GGCCGA,0.821
9,ACCGTG,0.229
10,GAGTTT,0.663
11,AGACGG,0.392
12,AGACGA,0.709
13,GTGGTG,0.869
14,CGTGGC,0.894
15,CACAGA,0.772
16,AGGCGT,0.528
17,AAGACC,0.81
18,GCCATA,0.967
19,CATGTG,0.798
20,GTAGAC,0.754

row,Sequence,binding signal
1,GCGGGA,0.377
2,GGGCGC,0.655
3,GAAGAC,0.915
4,GATAGA,0.863
5,GTCATC,0.859
6,GACCAG,0.721
7,GGAGAA,0.363
8,AGTCTG,0.537
9,GTCATG,0.819
10,TGAGTT,0.423
11,TACCAG,0.869
12,GGACTA,0.853
13,CAGCCG,0.72
14,GAGGAT,0.629
15,AGCTGG,0.822
16,GGGAGA,0.291
17,GGTGTG,0.723
18,GGCTGT,0.785
19,CGGCCG,0.87

# Target: T3, SPIC (UniProt Q8N5J4)
# T3 sequence: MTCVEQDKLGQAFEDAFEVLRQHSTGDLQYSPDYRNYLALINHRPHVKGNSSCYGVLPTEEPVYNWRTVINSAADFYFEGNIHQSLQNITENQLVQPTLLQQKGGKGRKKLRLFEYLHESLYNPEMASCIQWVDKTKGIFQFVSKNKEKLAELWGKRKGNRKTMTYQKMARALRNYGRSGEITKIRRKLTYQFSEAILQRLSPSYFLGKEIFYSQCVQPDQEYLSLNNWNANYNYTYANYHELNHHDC
# Test: as above
# Conditions: 10 mM Tris-HCl pH 7.5, 50 mM NaCl, 1 mM DTT, 4% glycerol, room temperature, 30 min; GST-TFs on glutathione beads, 16-mer random dsDNA library, 0.1% …; high values mean tight binding; double strand, one strand shown; scale: fold enrichment (6-mer frequency, TF over GST control)
row,Sequence,binding signal
1,GACAGC,0.673
2,GGGTCA,0.701
3,TGGCGG,0.758
4,CCAGGT,0.696
5,AGGTCA,0.681
6,GGAACC,0.864
7,GACGCA,0.638
8,GGCCGA,0.844
9,ACCGTG,0.236
10,GAGTTT,0.648
11,AGACGG,0.353
12,AGACGA,0.694
13,GTGGTG,0.943
14,CGTGGC,0.915
15,CACAGA,0.856
16,AGGCGT,0.539
17,AAGACC,0.935
18,GCCATA,0.873
19,CATGTG,0.804
20,GTAGAC,0.794

row,Sequence,binding signal
1,GCGGGA,0.33
2,GGGCGC,0.62
3,GAAGAC,0.81
4,GATAGA,0.735
5,GTCATC,0.87
6,GACCAG,0.597
7,GGAGAA,0.378
8,AGTCTG,0.623
9,GTCATG,0.619
10,TGAGTT,0.448
11,TACCAG,0.843
12,GGACTA,0.804
13,CAGCCG,0.676
14,GAGGAT,0.497
15,AGCTGG,0.968
16,GGGAGA,0.389
17,GGTGTG,0.826
18,GGCTGT,0.902
19,CGGCCG,0.815
